For two molecules, binding results are on record in paper doi:10.1101/2021.10.05.463194.

Results are given in words; binding and its absence hold for the method and conditions named. Binding seen in cells or lysates may run through a third protein. Some results given as binding are weak or reduced against the parent protein; the word gives no strength. Where a sequence is shown, tags or fusion partners need not be part of it.

Assay [1] addresses T1, GST-tagged HsNup93 (96-819) (human) (UniProt Q8N1F7).
T1 sequence: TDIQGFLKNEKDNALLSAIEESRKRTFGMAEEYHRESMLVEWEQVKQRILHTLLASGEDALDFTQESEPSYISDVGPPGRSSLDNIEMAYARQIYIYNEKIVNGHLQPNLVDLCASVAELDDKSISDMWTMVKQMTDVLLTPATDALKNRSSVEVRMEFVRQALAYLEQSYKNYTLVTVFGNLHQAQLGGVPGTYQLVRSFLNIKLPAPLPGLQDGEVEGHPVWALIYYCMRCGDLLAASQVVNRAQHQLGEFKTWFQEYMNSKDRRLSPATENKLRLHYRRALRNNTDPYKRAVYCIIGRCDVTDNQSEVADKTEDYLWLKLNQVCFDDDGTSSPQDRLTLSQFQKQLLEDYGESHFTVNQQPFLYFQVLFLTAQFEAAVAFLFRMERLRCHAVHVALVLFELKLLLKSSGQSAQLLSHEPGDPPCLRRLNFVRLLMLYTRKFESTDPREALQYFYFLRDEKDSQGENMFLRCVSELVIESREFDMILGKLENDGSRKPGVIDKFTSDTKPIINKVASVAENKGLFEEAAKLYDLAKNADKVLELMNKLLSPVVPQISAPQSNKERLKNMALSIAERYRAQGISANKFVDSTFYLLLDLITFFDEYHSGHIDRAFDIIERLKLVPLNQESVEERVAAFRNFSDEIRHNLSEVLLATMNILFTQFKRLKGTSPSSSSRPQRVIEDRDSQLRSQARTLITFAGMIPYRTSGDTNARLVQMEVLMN
In words: pull-down.

The target in assay [2] is T2, GST-tagged HsNup93 (1-150) (human) (UniProt Q8N1F7).
T2 sequence: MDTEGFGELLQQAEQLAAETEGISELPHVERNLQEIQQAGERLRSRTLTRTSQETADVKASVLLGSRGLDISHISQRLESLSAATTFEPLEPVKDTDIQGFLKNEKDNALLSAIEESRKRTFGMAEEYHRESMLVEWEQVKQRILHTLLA
The experiment in a line: pull-down.

B1: His6-tagged HsNup155 (1-515) (domain or fragment, UniProt O75694 1-515)
chain: MPSSLLGAAMPASTSAAALQEALENAGRLIDRQLQEDRMYPDLSELLMVSAPNNPTVSGMSDMDYPLQGPGLLSVPNLPEISSIRRVPLPPELVEQFGHMQCNCMMGVFPPISRAWLTIDSDIFMWNYEDGGDLAYFDGLSETILAVGLVKPKAGIFQPHVRHLLVLATPVDIVILGLSYANLQTGSGVLNDSLSGGMQLLPDPLYSLPTDNTYLLTITSTDNGRIFLAGKDGCLYEVAYQAEAGWFSQRCRKINHSKSSLSFLVPSLLQFTFSEDDPILQIAIDNSRNILYTRSEKGVIQVYDLGQDGQGMSRVASVSQNAIVSAAGNIARTIDRSVFKPIVQIAVIENSESLDCQLLAVTHAGVRLYFSTCPFRQPLARPNTLTLVHVRLPPGFSASSTVEKPSKVHRALYSKGILLMAASENEDNDILWCVNHDTFPFQKPMMETQMTAGVDGHSWALSAIDELKVDKIITPLNKDHIPITDSPVVVQQHMLPPKKFVLLSAQGSLMFHKLR
As to B1, in assay [1], the binding entry is “binds”.

B2: His6-tagged HsNup35 (1-305) (domain or fragment, UniProt Q8NFH5 1-305)
chain: MAAFAVEPQGPALGSEPMMLGSPTSPKPGVNAQFLPGFLMGDLPAPVTPQPRSISGPSVGVMEMRSPLLAGGSPPQPVVPAHKDKSGAPPVRSIYDDISSPGLGSTPLTSRRQPNISVMQSPLVGVTSTPGTGQSMFSPASIGQPRKTTLSPAQLDPFYTQGDSLTSEDHLDDSWVTVFGFPQASASYILLQFAQYGNILKHVMSNTGNWMHIRYQSKLQARKALSKDGRIFGESIMIGVKPCIDKSVMESSDRCALSSPSLAFTPPIKTLGTPTQPGSTPRISTMRPLATAYKASTSDYQVISD
Consider B2, for which the binding entry in assay [2] and in assay [1] was “binds” each time.
